Data as given in patent publication US6143780A, “N-arylmethylthioanilide compounds useful for the inhibition of the replication of HIV” (Uniroyal Chemical Company, Inc., priority 1999, dated 2000).
Several values for one entry are separate records, joined by “and”; a condition that tells them apart may be missing. Equal entries are not always repeated. At least one read-out could not be matched to a standard name with certainty.

Tested on: HIV-1 (IIIB)
Assay: inhibition of HIV-1(IIIB) (WT) induced syncytium formation in CEM cells
Type: cell-based
Conditions: Table 2, day 4 post infection, replicate values, read-out: EC50, Activity Against HIV-1 (IIIB)
Excerpt: CEM cells were obtained from the American Tissue Cell Culture Collection (Rockville, Md.) . HIV-1 (IIIB) was originally obtained from the culture supernatant of persistently HIV-1-infected H9 cells and was provided by R. C. Gallo and M. Popovic (National Cancer Institute, National Institutes of Health, Bethesda, Md.).
CEM cells were suspended at ≈300,000 cells per ml of culture medium and infected with approximately 100 CCID50 (CCID50 being the 50% cell culture infective dose) of HIV-1(IIIB) (designated as "WT" in Table 3) or one of the HIV-1 RT mutant strains described above. Then 100 μl of the infected cell suspensions was added to 200 μl microtiter plate wells containing 100 μl of appropriate serial (5-fold) dilutions of the test compounds. The inhibitiory effect of the test compounds on HIV-1 induced syncytium formation in CEM cells was examined microscopically on day 4 post infection. The 50% effective concentration (EC50) was defined as the test compound concentration that inhibits syncytium formation in the HIV-1-infected cell cultures by 50%.

SMILES: CCON=Cc1ccccc1OCc1cc(NC(=S)c2ccoc2C)ccc1Cl [Compound 50]
- EC50: 1.43 µM and 0.143 µM
